Values from PubChem BioAssay AID493246 (Drosophila RNAi Screening Center, 2011).
Purpose: 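Genome-wide search for dsRNAs that reduce cell number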 (primary screen). Cell system: Drosophila Kc and S2R+ cells. Knock-down reagent: long dsRNA against Drosophila genes. Read-out: 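Cell number per well after knock-down, printed as raw plate values; calls were based on per-plate z-scores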. Direction: Kc cell number and S2R+ cell number: higher = more cells remaining. Active means: 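Counted as a hit if cell number falls by a z-score of at least 3 within its plate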.
In all, the deposit lists about 21,000 reagents; shown is an unselected part of those with a known target gene and a result. In the full data, 429 (2%) got an active call. 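Values are raw and not normalised between plates; calls rest on per-plate z-scores that were not deposited.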 Not stated in the record: the amount of reagent, the time to read-out.

| Gene | DRSC id | Kc cell number, rep 1 | Kc cell number, rep 2 | S2R+ cell number, rep 1 | S2R+ cell number, rep 2 | Outcome |
| --- | --- | --- | --- | --- | --- | --- |
| CG32643 | DRSC18962 | 1.45e6 | 1.62e6 | 1.09e6 | 1.17e6 | inactive |
| ash1 (absent, small, or homeotic discs 1) | DRSC11325 | 1.49e6 | 1.59e6 | 1.03e6 | 1.08e6 | inactive |
| CG14431 | DRSC17925 | 1.48e6 | 1.47e6 | 9.94e5 | 1.08e6 | inactive |
| CG15914 | DRSC19739 | 1.45e6 | 1.45e6 | 1.05e6 | 1.16e6 | inactive |
| S-Lap2 (Sperm-Leucylaminopeptidase 2) | DRSC10628 | 1.22e6 | 1.35e6 | 1.16e6 | 1.23e6 | inactive |
| CG44098 | DRSC12214 | 1.39e6 | 1.62e6 | 1.30e6 | 1.39e6 | inactive |
| CG44098 | DRSC12327 | 1.36e6 | 1.49e6 | 1.34e6 | 1.47e6 | inactive |
| CG34045 | DRSC05787 | 5.87e5 | – | 9.08e5 | – | inactive |
| CG30286 | DRSC04070 | 1.49e6 | 1.56e6 | 1.29e6 | 3.29e5 | inactive |
| CG17841 | DRSC17737 | 6.90e5 | – | 9.79e5 | – | inactive |
| cert (ceramide transfer protein) | DRSC09674 | 1.32e6 | 1.40e6 | 1.22e6 | 1.12e6 | inactive |
| EMC5 (ER membrane protein complex subunit 5) | DRSC02469 | 1.51e6 | 1.59e6 | 1.27e6 | 3.32e5 | inactive |
| CG33061 | DRSC09938 | 1.47e6 | 1.49e6 | 1.20e6 | 1.32e6 | inactive |
| Pbp95 (PSEA-binding protein 95kD) | DRSC15448 | 1.41e6 | 1.51e6 | 1.21e6 | 1.32e6 | inactive |
| hui (hase und igel) | DRSC05977 | 1.58e6 | 1.58e6 | 1.10e6 | 1.25e6 | inactive |
| CG3734 | DRSC15509 | 1.33e6 | 1.34e6 | 1.07e6 | 1.16e6 | inactive |
| CG17237 | DRSC00491 | 1.65e6 | 1.66e6 | 1.08e6 | 1.25e6 | inactive |
| Atf-2 (Activating transcription factor-2) | DRSC04130 | 1.29e6 | 1.44e6 | 1.02e6 | 1.23e6 | inactive |
| CG5715 | DRSC15860 | 1.38e6 | 1.46e6 | 9.86e5 | 1.06e6 | inactive |
| CG13998 | DRSC02330 | 1.79e6 | 1.75e6 | 1.27e6 | 1.39e6 | inactive |
| gNacalpha | DRSC00654 | 1.66e6 | 1.80e6 | 8.56e5 | 1.07e6 | inactive |
| wor (worniu) | DRSC03637 | 1.46e6 | 1.56e6 | 1.20e6 | 1.34e6 | inactive |
| Clic (Chloride intracellular channel) | DRSC19364 | 5.84e5 | – | 8.85e5 | – | inactive |
| slp1 (sloppy paired 1) | DRSC00835 | 1.38e6 | 1.39e6 | 1.01e6 | 1.04e6 | inactive |
| CG8475 | DRSC03091 | 1.27e6 | 1.28e6 | 5.93e5 | 8.87e5 | inactive |
| Mtp (Microsomal triacylglycerol transfer protein) | DRSC03216 | 1.32e6 | 1.37e6 | 1.04e6 | 1.02e6 | inactive |
| Sirt2 (Sirtuin 2) | DRSC15714 | 1.44e6 | 1.53e6 | 1.04e6 | 1.09e6 | inactive |
| beat-IIIb (beaten path IIIb) | DRSC02435 | 1.53e6 | 1.59e6 | 1.26e6 | 1.38e6 | inactive |
| CG3829 | DRSC04423 | 1.39e6 | 1.49e6 | 1.07e6 | 1.11e6 | inactive |
| Slimp (Seryl-tRNA synthetase-like insect mitochondrial protein) | DRSC13656 | 1.03e6 | 1.24e6 | 1.04e6 | 1.07e6 | inactive |
| Obp56d (Odorant-binding protein 56d) | DRSC06064 | 1.53e6 | 1.61e6 | 1.26e6 | 1.36e6 | inactive |
| EndoA (Endophilin A) | DRSC14775 | 1.59e6 | 1.61e6 | 1.25e6 | 1.31e6 | inactive |
| Gycbeta100B (Guanylyl cyclase beta-subunit at 100B) | DRSC14039 | 1.06e6 | 1.22e6 | 1.05e6 | 1.07e6 | inactive |
| Gycbeta100B (Guanylyl cyclase beta-subunit at 100B) | DRSC14040 | 1.29e6 | 1.51e6 | 1.04e6 | 1.12e6 | inactive |
| Gycbeta100B (Guanylyl cyclase beta-subunit at 100B) | DRSC16691 | 6.21e5 | – | 8.97e5 | – | inactive |
| so (sine oculis) | DRSC07693 | 1.00e6 | 1.06e6 | 5.40e5 | 7.16e5 | active |
| Akap200 (A kinase anchor protein 200) | DRSC01864 | 1.17e6 | 1.31e6 | 5.21e5 | 5.30e5 | inactive |
| CG15878 | DRSC08486 | 1.58e6 | 1.42e6 | 9.23e5 | 1.23e6 | inactive |
| Nplp4 (Neuropeptide-like precursor 4) | DRSC00391 | 1.67e6 | 1.74e6 | 1.09e6 | 1.20e6 | inactive |
| CG31088 | DRSC13123 | 1.41e6 | 1.56e6 | 1.08e6 | 1.14e6 | inactive |
| fln (flightin) | DRSC11346 | 1.49e6 | 1.55e6 | 1.18e6 | 1.27e6 | inactive |
| CG32260 | DRSC08084 | 1.49e6 | 1.50e6 | 1.03e6 | 1.14e6 | inactive |
| Klp54D (Kinesin-like protein at 54D) | DRSC07450 | 1.50e6 | 1.59e6 | 1.19e6 | 1.29e6 | inactive |
| Map60 (Microtubule-associated protein 60) | DRSC07464 | 1.37e6 | 1.47e6 | 1.08e6 | 1.17e6 | inactive |
| UBL3 (Ubiquitin like 3) | DRSC20298 | 1.54e6 | 1.55e6 | 1.05e6 | 1.21e6 | inactive |
| GluRS-m (Glutamyl-tRNA synthetase, mitochondrial) | DRSC10431 | 1.37e6 | 1.39e6 | 1.23e6 | 1.34e6 | inactive |
| CG9686 | DRSC18439 | 1.55e6 | 1.55e6 | 1.03e6 | 1.16e6 | inactive |
| CG10859 | DRSC02110 | 1.27e6 | 1.37e6 | 1.30e6 | 1.24e6 | inactive |
| Cht4 (Chitinase 4) | DRSC04603 | 1.67e6 | 1.76e6 | 1.28e6 | 4.89e5 | inactive |
| ppk11 (pickpocket 11) | DRSC02737 | 1.53e6 | 1.59e6 | 1.34e6 | 1.49e6 | inactive |
| CG31087 | DRSC14253 | 2.00e6 | 2.07e6 | 1.09e6 | 1.18e6 | inactive |
| ng1 (new glue 1) | DRSC18802 | 1.50e6 | 1.49e6 | 1.00e6 | 1.22e6 | inactive |
| Rcc1 (Regulator of chromosome condensation 1) | DRSC09684 | 1.34e6 | 1.42e6 | 1.20e6 | 1.11e6 | inactive |
| CIA30 (Complex I intermediate-associated protein, 30 kDa) | DRSC16266 | 5.69e5 | – | 7.92e5 | – | inactive |
| CG17974 | DRSC04299 | 1.65e6 | 1.71e6 | 1.22e6 | 2.74e5 | inactive |
| SWIP (Strumpellin and WASH-interacting protein) | DRSC19540 | 1.46e6 | 1.44e6 | 1.15e6 | 1.26e6 | inactive |
| esg (escargot) | DRSC03530 | 1.69e6 | 2.00e6 | 1.20e6 | 1.28e6 | inactive |
| CG10041 | DRSC14179 | 1.60e6 | 1.85e6 | 1.38e6 | 1.52e6 | inactive |
| CG2750 | DRSC19867 | 1.67e6 | 1.82e6 | 1.11e6 | 1.36e6 | inactive |
| Qsox4 (Quiescin sulfhydryl oxidase 4) | DRSC14224 | 1.63e6 | 1.64e6 | 1.28e6 | 1.44e6 | inactive |
| Burs (Bursicon) | DRSC14595 | 1.27e6 | 1.30e6 | 1.09e6 | 1.14e6 | inactive |
| TTLL15 (Tubulin tyrosine ligase-like 15) | DRSC15543 | 1.65e6 | 1.81e6 | 1.21e6 | 1.28e6 | inactive |
| IKKepsilon (I-kappaB kinase epsilon) | DRSC03550 | 1.58e6 | 1.65e6 | 1.27e6 | 2.96e5 | inactive |
| CG8249 | DRSC07125 | 1.56e6 | 1.60e6 | 1.17e6 | 1.28e6 | inactive |
| Archease | DRSC16025 | 1.41e6 | 1.58e6 | 9.96e5 | 1.06e6 | inactive |
| Baldspot | DRSC09671 | 1.35e6 | 1.43e6 | 1.18e6 | 1.27e6 | inactive |
| CG14196 | DRSC19551 | 1.46e6 | 1.50e6 | 1.05e6 | 1.11e6 | inactive |
| msopa (male-specific opa containing gene) | DRSC11895 | 1.20e6 | 1.13e6 | 7.63e5 | 8.70e5 | active |
| Drp1 (Dynamin related protein 1) | DRSC00574 | 1.26e6 | 1.30e6 | 8.20e5 | 8.25e5 | inactive |
| CG14810 | DRSC17693 | 1.37e6 | 1.65e6 | 9.55e5 | 1.06e6 | inactive |
| CG14810 | DRSC17961 | 1.48e6 | 1.44e6 | 1.02e6 | 1.08e6 | inactive |
| Tsp (Thrombospondin) | DRSC02144 | 1.08e6 | 1.32e6 | 6.47e5 | 6.63e5 | inactive |
| Tsp (Thrombospondin) | DRSC02145 | 1.52e6 | 1.39e6 | 1.15e6 | 1.30e6 | inactive |
| Tmx3 (Thioredoxin-related transmembrane protein 3) | DRSC10471 | 2.01e6 | 1.89e6 | 1.32e6 | 1.47e6 | inactive |
| Naus (Nausicaa) | DRSC06011 | 1.35e6 | 1.60e6 | 1.25e6 | 1.22e6 | inactive |
| Naus (Nausicaa) | DRSC06469 | 1.47e6 | 1.57e6 | 1.05e6 | 1.10e6 | inactive |

Targets listed so far whose target name starts with E or e:
| Gene | DRSC id | Kc cell number, rep 1 | Kc cell number, rep 2 | S2R+ cell number, rep 1 | S2R+ cell number, rep 2 | Outcome |
| --- | --- | --- | --- | --- | --- | --- |
| EMC5 (ER membrane protein complex subunit 5) | DRSC02469 | 1.51e6 | 1.59e6 | 1.27e6 | 3.32e5 | inactive |
| EndoA (Endophilin A) | DRSC14775 | 1.59e6 | 1.61e6 | 1.25e6 | 1.31e6 | inactive |
| esg (escargot) | DRSC03530 | 1.69e6 | 2.00e6 | 1.20e6 | 1.28e6 | inactive |
